PMC10536727
These are yes or no findings as the source states them, for the method shown. Binding seen in cells or lysates may run through a third protein. Some results given as binding are weak or reduced against the parent protein; the word gives no strength. For part of these data: Tags and fused reporters may be left off the sequences shown. Each block holds one molecule with its values, some of them ahead of it.

Sequences of proteins named here, by UniProt entry; tags and fusion partners are left off.
UniProt P35241: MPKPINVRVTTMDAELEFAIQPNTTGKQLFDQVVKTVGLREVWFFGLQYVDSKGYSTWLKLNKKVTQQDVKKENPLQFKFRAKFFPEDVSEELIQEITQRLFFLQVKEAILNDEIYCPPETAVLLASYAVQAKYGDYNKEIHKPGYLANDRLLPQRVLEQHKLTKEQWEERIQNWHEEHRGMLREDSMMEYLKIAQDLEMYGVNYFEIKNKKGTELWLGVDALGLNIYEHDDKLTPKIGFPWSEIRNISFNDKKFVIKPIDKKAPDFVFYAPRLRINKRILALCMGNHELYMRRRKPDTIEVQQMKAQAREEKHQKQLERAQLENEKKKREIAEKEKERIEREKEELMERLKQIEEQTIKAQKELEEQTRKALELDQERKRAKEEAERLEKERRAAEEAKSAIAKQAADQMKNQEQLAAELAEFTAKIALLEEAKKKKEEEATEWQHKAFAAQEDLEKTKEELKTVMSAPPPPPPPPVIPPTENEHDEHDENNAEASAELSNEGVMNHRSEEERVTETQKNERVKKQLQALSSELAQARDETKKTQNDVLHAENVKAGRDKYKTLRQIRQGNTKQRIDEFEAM

Experiments:
Flag-ICAM2 = target: T1, Flag-ICAM2 (UniProt P13598); experiment: co-IP; Flag-ICAM2 and HA-RDX plasmids co-transfected into 293 T cells; lysate, immunoprecipitation, Western blotting
T1 sequence: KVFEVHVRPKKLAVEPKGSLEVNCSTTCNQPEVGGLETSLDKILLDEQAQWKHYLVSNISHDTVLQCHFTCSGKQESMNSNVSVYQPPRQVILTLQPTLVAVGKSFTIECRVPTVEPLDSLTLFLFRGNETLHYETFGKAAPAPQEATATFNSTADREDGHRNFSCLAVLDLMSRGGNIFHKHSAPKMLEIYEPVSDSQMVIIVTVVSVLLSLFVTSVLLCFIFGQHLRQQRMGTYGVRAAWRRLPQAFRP

[1] = target: T2, intercellular adhesion molecule 2 (ICAM2), endogenous (human (endogenous in SGC7901 and MGC803)) (UniProt P13598); experiment: co-IP; endogenous proteins in lysates of SGC7901 and MGC803 cells (Pierce IP Lysis Buffer); ICAM2 antibody or RDX antibody or normal immunoglobulin G, protein A/G agarose beads, overnight at 4 °C; Western blotting
T2 sequence: T1 sequence

[2] = target: radixin (RDX), endogenous (human (endogenous in SGC7901 and MGC803)) (UniProt P35241); experiment: as above

binding (Flag-ICAM2): binds
Molecule: HA-RDX (from UniProt P35241 1-583)

binding [1]: binds
Molecule: radixin (RDX), endogenous (from UniProt P35241 1-583)

binding [2]: binds
B1: intercellular adhesion molecule 2 (ICAM2), endogenous (protein, UniProt P13598 25-275)
chain: T1 sequence
